From patent US12673120B2, “Fluorescently-traceable amino acid derivative and preparation methods and use thereof” (priority 2020, dated 2026) come the findings set out here.

This data set concerns U2Os (human osteosarcoma cells). Kind of data set: Intracellular distribution by confocal laser. The data set is classed as cell-based. Particulars: 10 μM and 5 μM, 8 h and 24 h; for Intracellular distribution (fluorescence co-localization): DAPI nuclear stain.

For the compound `CC(C)C[C@H](Nc1ccc([N+](=O)[O-])c2nonc12)C(=O)N[C@H](C(=O)OCc1ccccc1)C(C)C` [ZD-B, NBD-LV-OBzl], the “Intracellular distribution (fluorescence co-localization)” value is listed as “did not enter the nucleus, but was dispersed in the cytoplasm”.

Turning to `N=C(CCl)NCCC[C@H](Nc1ccc([N+](=O)[O-])c2nonc12)C(=O)NCc1ccccc1` [ZD-E-1, (S)—N-benzyl-5-(2-chloroacetimido)-2-((7-nitro-2,1,3-benzoxadiazol-4-yl)amino)pentaneamide], the “Content entering the cell” value is “increasing content entering the cell with an increase of concentration and the extension of time”; the “Intracellular distribution (fluorescence co-localization)” value is “distributed in both the nucleus and cytoplasm”.
